This is an account of results in publication PMC11780858.

Sequences of proteins named here, by UniProt entry; tags and fusion partners are left off.
UniProt P67775: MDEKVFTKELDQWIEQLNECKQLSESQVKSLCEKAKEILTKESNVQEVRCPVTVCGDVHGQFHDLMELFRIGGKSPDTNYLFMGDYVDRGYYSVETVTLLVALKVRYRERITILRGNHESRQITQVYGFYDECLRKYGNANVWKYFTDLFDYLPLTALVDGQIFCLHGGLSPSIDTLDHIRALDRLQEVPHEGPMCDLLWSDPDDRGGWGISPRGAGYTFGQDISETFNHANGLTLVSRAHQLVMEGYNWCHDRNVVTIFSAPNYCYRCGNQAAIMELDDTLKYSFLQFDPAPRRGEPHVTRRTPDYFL

Results are given in words; binding and its absence hold for the method and conditions named. Binding seen in cells or lysates may run through a third protein. Some entries that bind do so weakly or less than the wild type. Tags and fused reporters may be left off the sequences shown.

For the assay, the target named is PP2A catalytic Cα subunit, N-terminally SmBiT-tagged (human) (UniProt P67775). Nature of the assay: split reporter; live COS-1 cells in 96-well plates transfected with equal mass ratios of plasmids for SmBiT-Cα, Bβ2-LgBiT and Aα (without Lg/SmBiT); luminescence with Nano-Glo Live Cell Substrate after 24-36 h; normalised for Bβ2-LgBiT expression with a cell-permeable HiBiT peptide. (In general: HiBiT is a short tag that completes a luciferase, so light tracks the accessible tagged protein.)

B1: PPP2R2B/Bβ2 wild type, C-terminally LgBiT-tagged (protein, UniProt Q00005-2 1-446)
chain: MKCFSRYLPYIFRPPNTILSSSCHTEADIISTVEFNHTGELLATGDKGGRVVIFQREQESKNQVHRRGEYNVYSTFQSHEPEFDYLKSLEIEEKINKIRWLPQQNAAYFLLSTNDKTVKLWKVSERDKRPEGYNLKDEEGRLRDPATITTLRVPVLRPMDLMVEATPRRVFANAHTYHINSISVNSDYETYMSADDLRINLWNFEITNQSFNIVDIKPANMEELTEVITAAEFHPHHCNTFVYSSSKGTIRLCDMRASALCDRHTKFFEEPEDPSNRSFFSEIISSISDVKFSHSGRYIMTRDYLTVKVWDLNMENRPIETYQVHDYLRSKLCSLYENDCIFDKFECVWNGSDSVIMTGSYNNFFRMFDRNTKRDVTLEASRENSKPRAILKPRKVCVGGKRRKDEISVDSLDFSKKILHTAWHPSENIIAVAATNNLYIFQDKVN
B1: the binding entry is “binds”.
